Assay results published in PMC12137173.

By UniProt entry, the sequences of proteins in these tests, tags left out.
UniProt P25694: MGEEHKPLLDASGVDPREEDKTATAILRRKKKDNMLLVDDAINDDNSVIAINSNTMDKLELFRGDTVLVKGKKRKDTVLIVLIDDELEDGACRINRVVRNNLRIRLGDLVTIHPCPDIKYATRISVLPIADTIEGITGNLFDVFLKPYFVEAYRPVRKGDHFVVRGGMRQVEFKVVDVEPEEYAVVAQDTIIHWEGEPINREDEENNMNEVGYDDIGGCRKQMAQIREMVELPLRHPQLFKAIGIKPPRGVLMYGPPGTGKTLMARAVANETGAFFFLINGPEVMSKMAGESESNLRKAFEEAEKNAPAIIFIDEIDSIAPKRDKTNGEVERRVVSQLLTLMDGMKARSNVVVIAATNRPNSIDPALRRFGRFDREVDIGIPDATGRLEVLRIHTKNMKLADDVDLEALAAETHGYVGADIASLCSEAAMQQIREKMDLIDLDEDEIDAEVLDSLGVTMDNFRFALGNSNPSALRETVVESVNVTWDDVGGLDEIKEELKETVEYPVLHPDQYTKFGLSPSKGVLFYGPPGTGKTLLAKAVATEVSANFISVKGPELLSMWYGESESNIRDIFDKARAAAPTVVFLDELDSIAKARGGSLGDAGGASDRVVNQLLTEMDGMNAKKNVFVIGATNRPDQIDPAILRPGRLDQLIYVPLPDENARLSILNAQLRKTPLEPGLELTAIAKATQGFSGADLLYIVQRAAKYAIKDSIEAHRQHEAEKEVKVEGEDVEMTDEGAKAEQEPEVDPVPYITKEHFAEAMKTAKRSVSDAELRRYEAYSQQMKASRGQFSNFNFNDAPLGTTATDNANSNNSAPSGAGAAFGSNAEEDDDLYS
UniProt P0CX25: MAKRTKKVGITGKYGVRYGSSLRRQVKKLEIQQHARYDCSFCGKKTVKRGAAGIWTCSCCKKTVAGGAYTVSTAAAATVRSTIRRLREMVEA

Biological target: Cdc48 (WT), C-terminally tagged with FLAG and HIS-tag (S. cerevisiae) (UniProt P25694)
Experiment: affinity purification with mass spectrometry; FLAG-tagged Cdc48 (WT or C115S) co-immunoprecipitated on magnetic beads from yeast lysate (Tris HCl pH 7.5 with protease inhibitors, Triton; diluted 1:1 with 50 mM Tris-HCl pH 7.5, 200 mM NaAc, 10 % glycerol), overnight at 4 °C; cells grown 24 h and 48 h; LC-MS/MS with label-free quantification; PTM search of the same data by PROMISE

binding: binds
Substance: Rpl43A (ubiquitinated) (from UniProt P0CX25 1-92)

These are yes or no findings as the source states them, for the method shown. In cells and extracts the contact can be indirect. A yes stands for co-enrichment or nearness to the bait. Other partners may have been found.
